Assay results published in article PMC7819943, “Rice protein-binding microarrays: a tool to detect cis-acting elements near promoter regions in rice”.
Some of the results follow.

Amino acid sequences for entries named in this document (tags omitted).
UniProt Q0JBA9, entry or part of it: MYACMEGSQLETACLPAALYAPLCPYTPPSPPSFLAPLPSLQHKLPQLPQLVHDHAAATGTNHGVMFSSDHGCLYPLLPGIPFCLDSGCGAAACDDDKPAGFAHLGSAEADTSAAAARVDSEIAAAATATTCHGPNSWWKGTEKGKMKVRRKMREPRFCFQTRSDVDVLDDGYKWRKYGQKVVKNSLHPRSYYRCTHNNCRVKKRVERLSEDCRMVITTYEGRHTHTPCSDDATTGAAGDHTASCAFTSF

target: OsWRKY34 (Oryza sativa, UniProt Q0JBA9 1-250); assay: protein-binding microarray (RPBM); PBS, 2% BSA, 51.3 ng/ul salmon testes DNA, 50 uM zinc acetate, 200 nM TF, 25 C, 1 h; high values mean tight binding; conditions: protein: recombinant; tags: N-terminal polyhistidine and DsRed monomer fusion (pET32a); label: CyDye5-dUTP incorporated in the synthesized complementary strand; 3' TTTTT single-stranded linker to array surface; dsDNA, one strand shown
Method in brief: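 For the binding signal, per-feature fluorescence intensity was read in arbitrary units on an Axon 4000B scanner. Before scanning, a 2% BSA-blocked custom Agilent array made double-stranded with Cy5-dUTP was washed after 1 h at 25 °C with 200 nM protein and 50 µM zinc acetate. The proteins were Ni–NTA-purified transcription factors with N-terminal polyhistidine and DsRed fusions, expressed in E. coli BL21-CodonPlus.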

Row | Sequence | binding signal
1 | CACCGGCCTCCGAGGCTCCGATTCCTTCTCTTGCACACCACGGAGTCACCTAGTGCAG | 8210 fluorescence intensity (a.u.)
2 | GCAATTACATTTGCGGTTGGAGGAGGGGAGGCGCGGCGGACGGAGTCACCTAGTGCAG | 10200 fluorescence intensity (a.u.)
3 | ACTGGAACATCTACCTCACTTGCCCTGCTCCCTTCTTATACGGAGTCACCTAGTGCAG | 8040 fluorescence intensity (a.u.)
4 | TGCATGCTGCTTCATTATGATGTCCTGATTTGGTGTTTTACGGAGTCACCTAGTGCAG | 11400 fluorescence intensity (a.u.)
5 | TGTGCAGCGCTTTACTCAGCTGCTTTTCTGTTTACTTCCACGGAGTCACCTAGTGCAG | 10400 fluorescence intensity (a.u.)
6 | ATTCCCCACTTCCCCAACCCAGGCGATCCTCCGCCGCCGCCGGAGTCACCTAGTGCAG | 8210 fluorescence intensity (a.u.)
7 | CAGTAACTGTTACTGTTGCTACTATATCACTTGATATTCACGGAGTCACCTAGTGCAG | 8290 fluorescence intensity (a.u.)
8 | CATCACACCCATTTCCTTGCCTACTCCTCAATTAGTTAACCGGAGTCACCTAGTGCAG | 8650 fluorescence intensity (a.u.)
9 | CTGCACTGCTGCTCATAGTCACACTCTCTCTCTGCTTCATCGGAGTCACCTAGTGCAG | 9060 fluorescence intensity (a.u.)
10 | CTGGCATGTGGATGTACTTTTTTTTTTTTTTGCTTCAATCCGGAGTCACCTAGTGCAG | 9880 fluorescence intensity (a.u.)
11 | TGGCGTCGTTCTCTCCTCCTCCCCGCTAAACCGCCGCCGGCGGAGTCACCTAGTGCAG | 8740 fluorescence intensity (a.u.)
12 | AATCCAATTTGTTGTATTTTGTTGTTTTCTCATCTATTACCGGAGTCACCTAGTGCAG | 10400 fluorescence intensity (a.u.)
13 | CCTTCGTTTACAAAGGGTGTGTTCGGCTGCTTTTTTTTTCCGGAGTCACCTAGTGCAG | 10800 fluorescence intensity (a.u.)
14 | CTCTCTGTGTCTCCGCCGCCGCCGCCTCCGCCGCTCGCCGCGGAGTCACCTAGTGCAG | 8060 fluorescence intensity (a.u.)
15 | GCCTCGTCGTCTTCGTCTCACGCCACCATCGCCATCGCGGCGGAGTCACCTAGTGCAG | 10300 fluorescence intensity (a.u.)
16 | ACCTCAGGCCCACGTATTCCTGTCATCTTCCACCTCCGGACGGAGTCACCTAGTGCAG | 13900 fluorescence intensity (a.u.)
17 | TTAATGTATCTAAATATTTTTTCTTACTCTTCTTTCCTTTCGGAGTCACCTAGTGCAG | 8430 fluorescence intensity (a.u.)
18 | GCCTTCGGCTGTTGACGGCCTCTTCCTTTCACAGATCATACGGAGTCACCTAGTGCAG | 9010 fluorescence intensity (a.u.)
19 | TGGTTGGGGTAGTGGGCCAGAATATTTATGCTTTTCTGGACGGAGTCACCTAGTGCAG | 10100 fluorescence intensity (a.u.)
20 | GGGTTCATTATGCAGTAATCTCAGCTAGAATGCTTTAGGACGGAGTCACCTAGTGCAG | 8540 fluorescence intensity (a.u.)
21 | TGCGCTAACGTCTCCAAACGTCGTTCATCTCATTCTTACCCGGAGTCACCTAGTGCAG | 9240 fluorescence intensity (a.u.)
22 | ACTCCTTTTGGTCCTGCAGCTTCTGTGTTCAACATATTTTCGGAGTCACCTAGTGCAG | 14000 fluorescence intensity (a.u.)
23 | TCCTCTCAACTTTGGTAGTTTGTCACCTGCATATGAATATCGGAGTCACCTAGTGCAG | 9870 fluorescence intensity (a.u.)
24 | ATATCACAACTTGACTGCTTGTTGTCTTGTGGGAATTATTCGGAGTCACCTAGTGCAG | 9770 fluorescence intensity (a.u.)
25 | TTCACTGTGGCTGGCTACTCACTCCATCCTGCACATCGAGCGGAGTCACCTAGTGCAG | 9080 fluorescence intensity (a.u.)
26 | AAAATAATTCTCAGCCCAACAAAATACAAAGAATAATTCTCGGAGTCACCTAGTGCAG | 8660 fluorescence intensity (a.u.)
27 | TAGTCTTTTATTTTTTTTATCAAATTGTCACATAAGCGCCCGGAGTCACCTAGTGCAG | 8390 fluorescence intensity (a.u.)

Row | Sequence | binding signal
28 | TTTTCATGTTTTCCGTATCAACCACTTAATCTTTATCTTTCGGAGTCACCTAGTGCAG | 10100 fluorescence intensity (a.u.)
29 | GCTGGTTGCATGGATCTCCGGTGGGCTTGTCGGGAAAGTACGGAGTCACCTAGTGCAG | 10700 fluorescence intensity (a.u.)
30 | CACGTGTTCCGCCGCCCGCACACGCGGCGTCCCGTCCAGTCGGAGTCACCTAGTGCAG | 12700 fluorescence intensity (a.u.)
31 | TTTGTGGACATTTCTACCCCTAGGCCCACCTGTCAGATCCCGGAGTCACCTAGTGCAG | 8550 fluorescence intensity (a.u.)
32 | GCCATTTGTACGTTTCTATTTTCTCAGTAATCAGACCATTCGGAGTCACCTAGTGCAG | 11600 fluorescence intensity (a.u.)
33 | CATTCGCCTCGCCGCCGCCCGCCTGTTTTCTCGGTCGCGTCGGAGTCACCTAGTGCAG | 10500 fluorescence intensity (a.u.)
34 | ACTCTCTCGGTGTGCGCGCTCTCCGCCTCCGCCTTCCAAGCGGAGTCACCTAGTGCAG | 11300 fluorescence intensity (a.u.)
35 | CGTTGATTTGGTTTGGGTTAGTTATGGGTTTGATTTTTTTCGGAGTCACCTAGTGCAG | 20600 fluorescence intensity (a.u.)
36 | CAATGGAGGGGTGTTTTTTTTTCTATTTTTCTAAATAATTCGGAGTCACCTAGTGCAG | 14800 fluorescence intensity (a.u.)
37 | ACTCTAACACTGTTTGATCTTCTATGATGCTCTGAACATCCGGAGTCACCTAGTGCAG | 8440 fluorescence intensity (a.u.)
38 | GTAGCCCTTGTCGTCATCGTCCTTTTGGATCTCAAAGTCTCGGAGTCACCTAGTGCAG | 8570 fluorescence intensity (a.u.)
39 | CGTTCTTATCCACTCATTCCACTGTAATGGGATTGTTTGTCGGAGTCACCTAGTGCAG | 9000 fluorescence intensity (a.u.)
40 | AACTTCGCAAGAGGCATGCTCTCCAGCCTCAATTTTCATGCGGAGTCACCTAGTGCAG | 8410 fluorescence intensity (a.u.)
41 | TTCCCAGATATATAGGTTCCGTGCTCATGGATTTTCGTTCCGGAGTCACCTAGTGCAG | 8870 fluorescence intensity (a.u.)
42 | TCCTCGGCTCGGCCGTGGCTGCTAGCTGCCTGCCTTTAAACGGAGTCACCTAGTGCAG | 8870 fluorescence intensity (a.u.)
43 | GTTCCCAAGTTGTCTGCTGCTTCCGTAACGTCAAAATTCGCGGAGTCACCTAGTGCAG | 10200 fluorescence intensity (a.u.)
44 | TGTGGTTGAGGGATACTCACTCCTTTCCAAATTTATCATCCGGAGTCACCTAGTGCAG | 9170 fluorescence intensity (a.u.)
45 | TGATCGCTCGCCGCCGCGGCCGCTCTCCCGCCGGCGCCGCCGGAGTCACCTAGTGCAG | 9560 fluorescence intensity (a.u.)
46 | CCAGTGCGACCTCCACTTCCGAGGCTTTCACACCGTGCGACGGAGTCACCTAGTGCAG | 11400 fluorescence intensity (a.u.)
47 | AACCCTGCAATGAAATTGCTGCTCCTAGTATATACTGTATCGGAGTCACCTAGTGCAG | 8850 fluorescence intensity (a.u.)
48 | ATGTTGCCAATCAATTCCAGCCAGGCGCACTAGCAATCTTCGGAGTCACCTAGTGCAG | 8310 fluorescence intensity (a.u.)
49 | TCCTAATAATGGTGTTAGGGTATCAACTGGGTTCAAGTATCGGAGTCACCTAGTGCAG | 8580 fluorescence intensity (a.u.)
50 | AGTGTTAGAATAGTGTTTTTCTTTTTTCAGTTGAGCTGTACGGAGTCACCTAGTGCAG | 9170 fluorescence intensity (a.u.)
51 | AGTTTTGTTGACTGACTTAAGGCTTTATTTCTCACTGTGGCGGAGTCACCTAGTGCAG | 8750 fluorescence intensity (a.u.)
52 | TGTACTTCCATGCTATTTCTATGAATTATCAGTCGTACCTCGGAGTCACCTAGTGCAG | 9340 fluorescence intensity (a.u.)
53 | CACCAAACCCCAACCCACCTCCAGGTCATCCACCCACATCCGGAGTCACCTAGTGCAG | 8430 fluorescence intensity (a.u.)
54 | CCACTGCCAAAGCTATCTGTATCGTCATTTTGCATGTTTCCGGAGTCACCTAGTGCAG | 12200 fluorescence intensity (a.u.)

Given with tabs: entries from further up
Row	Sequence	binding signal
47	AACCCTGCAATGAAATTGCTGCTCCTAGTATATACTGTATCGGAGTCACCTAGTGCAG	8850 fluorescence intensity (a.u.)
48	ATGTTGCCAATCAATTCCAGCCAGGCGCACTAGCAATCTTCGGAGTCACCTAGTGCAG	8310 fluorescence intensity (a.u.)
49	TCCTAATAATGGTGTTAGGGTATCAACTGGGTTCAAGTATCGGAGTCACCTAGTGCAG	8580 fluorescence intensity (a.u.)
